Measurements published in PubChem BioAssay AID1508600 (Functional Genomics Laboratory (NCATS/FGL), 2020).
In all, about 53,000 sequences went through this assay and about 3,700 (7%) were called active.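 How the source made its calls: active means gene knockdowns whose robust z-score for IL-1 alpha signal is at least 2 or at most -2, so actives lie on both sides; inactive means the rest.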 The list shows a part of the results.

assay: Components of the Cytosolic LPS Sensing Pathway: Gene Identification via Genome-wide siRNA Screen; conditions: RAW264.7 macrophages, IL-1a HTRF, actives lie on both sides, screened at 100 nM (by protocol), cells primed 5 h with Pam3CSK4 first;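 further: robust z of the log signal after scaling to non-targeting control siRNA wells of the plate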
How it was run: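 Supernatant IL-1a by HTRF from RAW264.7 cells primed with Pam3CSK4 (5 hours) and transfected with LipidA (24 hour) after 48h siRNA knockdown at 100 nM; cell viability checked with CellTiter-Glo.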

Row | Sequence | z-score
1 | GGACCAUGCUGGAUACUAUTT against Yrdc | inactive: 1.74
2 | CCCAUUAUUAACGCGAAGGTT against Pfn4 | inactive: 0.907
3 | GCUGCUUAAUGCCAGGCGATT against Snapin | inactive: -0.251
4 | GGAAAAGAAGAUGAACAAGTT against Slc24a1 | inactive: 0.838
5 | CCUUAACUCACUUCAUAAUTT against Vps35 | inactive: 0.542
6 | GGUUCUCAUGAACAGUGAGTT against Tm9sf4 | inactive: 1.02
7 | GGAUGACAACAACACUCUGTT against Cacna1s | inactive: -1.09
8 | GCUCUUGGUCCGUCUUCAGTT against 6030452D12Rik | inactive: -1.76
9 | GGAAGUACCAGGAAGCUGATT against Stmn4 | inactive: -1.4
10 | GGAAAAUAAGGACACUAGUTT against Zfx | inactive: -1.09
11 | GCAGGAUCAGCUGUUCACATT against Wdr24 | inactive: -1.7
12 | GGGAAUCAGAUUUGACCUUTT against Mrpl19 | inactive: -0.353
13 | GGACACAAUGACAAAGUCCTT against Wdfy2 | inactive: -1.51
14 | GGGCUUCAUGGUUCAAACATT against Ppil3 | inactive: -1.11
15 | GGAGGUCCACCUCAUUCUGTT against Gdap1 | inactive: -0.485
16 | CCUAGAUUGAAAAUUGUCATT against Zfp974 | inactive: -1.55
17 | GCCUGGCAGAUAUCGCUCUTT against Homez | inactive: -0.556
18 | GGUUGUGGACACAUCCAAATT against Aacs | active: 2.08
19 | GGAAUCAUGCUGAAAGAGATT against Apom | inactive: -0.123
20 | GGAACCUGGUAGGUCAGAATT against Olfr156 | inactive: 0.421
21 | GGCUGAAGAGCCUAGAGAATT against 1700120K04Rik | inactive: -0.124
22 | GGUGGUUAAACCCAGACUGTT against 2310067E19Rik | inactive: 0.544

Rewritten as comma-separated lines: part of the list above
Row,Sequence,z-score
7,GGAUGACAACAACACUCUGTT against Cacna1s,inactive: -1.09
8,GCUCUUGGUCCGUCUUCAGTT against 6030452D12Rik,inactive: -1.76
9,GGAAGUACCAGGAAGCUGATT against Stmn4,inactive: -1.4
10,GGAAAAUAAGGACACUAGUTT against Zfx,inactive: -1.09
11,GCAGGAUCAGCUGUUCACATT against Wdr24,inactive: -1.7
12,GGGAAUCAGAUUUGACCUUTT against Mrpl19,inactive: -0.353

The results go on:

Row | Sequence | z-score
23 | CCUCGUGUAAGUAUUUAGATT against Mrpl51 | inactive: 0.512
24 | GCCUACAACACAUUCAUUATT against A830039N20Rik | inactive: 0.982
25 | GGUUUCUCUCUACGCUAUGTT against Nrp2 | inactive: -0.817
26 | GGCAGGAAAGAAAAACGUATT against 4933402J07Rik | inactive: -0.145
27 | GGUAUUCACUGCUUCAUCUTT against Ubap2 | inactive: 0.65
28 | GCUGGCUGCAUAAACUUGUTT against Lipg | inactive: 0.899
29 | CCUGAGGUGCAGGACUAAUTT against Nars2 | inactive: 0.589
30 | GCCUUACACCUGAAAUCGUTT against Ubxn2b | inactive: -1.86
31 | GCCUAUAGCACUGUGCCAUTT against Il17rd | inactive: -0.794
32 | GGGUACGUUCAAGUGCUUCTT against Agtpbp1 | inactive: 1.74
33 | GGAUUCUUCACAGCGGAUGTT against Phyhd1 | inactive: 0.0446
34 | GGAAAAGGAGGAGAGUUAUTT against Nkapl | inactive: 0.153
35 | GGGUAUGGUGGUCAAUAAATT against Gmnc | inactive: 0.646
36 | GGCAACUUUUAUCAAAAUGTT against Stk-ps2 | inactive: 0.122
37 | GGAAAUCUGUGUGAUUGAATT against Pcca | inactive: -0.251
38 | GUGAUUUGAGAUAAUCUCCTT against Zfp182 | inactive: -0.476
39 | GGAAGUAUUGACGAGUGGGTT against Orai3 | inactive: 0.0813
40 | GGAGGAACAUAUCAAGGAATT against Tmem143 | active: 2.27
41 | GGCCAAAUACCUUACCAAGTT against Pold2 | inactive: 0.767
42 | GGCAUUUUAUCUGUUAGACTT against Serpinh1 | inactive: -0.824
43 | GGCAACUAGCCCUAAAGGCTT against Tmem115 | inactive: 1.05
44 | GGCAAUUUGCUGUUUCAUATT against St6galnac5 | inactive: 0.132

Three entries drawn at random from the list so far:
Row | Sequence | z-score
28 | GCUGGCUGCAUAAACUUGUTT against Lipg | inactive: 0.899
29 | CCUGAGGUGCAGGACUAAUTT against Nars2 | inactive: 0.589
27 | GGUAUUCACUGCUUCAUCUTT against Ubap2 | inactive: 0.65

Remaining list, next part.

Row | Sequence | z-score
45 | GCAUCUUAUCAAAUAUCCATT against Abca1 | inactive: -0.0177
46 | GGUCUCUGGUACACUUCAUTT against Ramp1 | inactive: 0.608
47 | CGAAGUGCUUCAAUAGUAATT against Rnf14 | inactive: 0.737
48 | GCAUGUGGAGAAGAUGAGGTT against Tas2r143 | inactive: 0.793
49 | GGGAAGGAGAGUAUUCCAATT against Mrpl14 | active: 3.44
50 | CCGUUUGUCCCAGAUAUGATT against Rap1gap2 | inactive: -0.43
51 | CCAGCUCAGUUCCAAACAATT against Dnajc12 | inactive: -0.0206
52 | GCGAGUCGCUCAUAGUGAATT against Obsl1 | inactive: -0.306
53 | GGCUGUGUAUGCUUUACCATT against Dnajc11 | inactive: 0.812
54 | AUAAAGAUGUUGCUGUUGCTT against Olfr44 | inactive: -0.992
55 | GGGACUCUAAAAUCUCAGGTT against Samd10 | inactive: -0.863
56 | GCUGUUGUGUACGUGAGCCTT against Tfr2 | inactive: -1.05
57 | GGCACUUAAGUAUUCUUCATT against Wac | inactive: -0.412
58 | GGAGCACAGAAAACACAAGTT against Ncan | active: 3.41
59 | CGCUGUUUGAAUUUGUAUUTT against Nat10 | inactive: 0.825
60 | GGUGCCAACCUCAAUUCAUTT against Hnf4a | inactive: 1.9
61 | GGUCUACUGGCGUAAUUACTT against Vsig4 | inactive: -0.365
62 | GCGUGUAAGUAUGAGAACCTT against Ptpdc1 | inactive: 0.322
63 | GGACAGAGACAAGAAAAUATT against Ptpn11 | inactive: -0.931
64 | GGACAAAUUGGUAGGAGGATT against Mslnl | inactive: 0.374
65 | GGACUGGAUUUCAUUUAGATT against Fgf9 | inactive: 0.755
66 | AACUAGCAAUAUGAUGGAGTT against Chic1 | inactive: -0.55

Row | Sequence | z-score
67 | GGUAUUACUGAAAAGCACCTT against Spidr | inactive: 1.22
68 | GGGACCUUGUAAUAGCAAATT against Inip | inactive: 1.09
69 | GGACAAGGAAACAAAUUCATT against F8 | inactive: 0.755
70 | CCUUUGGUAAUCUCCAAAATT against Amph | inactive: 0.862
71 | CGGACUAUCUCUAUGAAGATT against Tas2r108 | inactive: -0.587
72 | GGCCCUGGAAACUAAGCUUTT against Aldob | inactive: -1.2
73 | CCUUAAAUGGAGCUUCAGATT against Insrr | inactive: 0.228
74 | GGAUGAGGAAAACUUCCAGTT against Mup5 | active: 2.61
75 | GGUUUGGACACCUCUGUCATT against Adcy9 | inactive: -1.04
76 | GGGACACGUUUUCUGUGCATT against Lrrk1 | inactive: -1.77
77 | CGGUGAAAGACUUCAGUAUTT against Ppfibp1 | inactive: 0.578
78 | GCUCAGGAACAUUUGGACATT against Cyp2a5 | inactive: 0.655
79 | GGGCUUGAAAGCAUACAAATT against Bcat2 | inactive: 1.3
80 | GCUCCAAAUCAGUGUGCAATT against Gm4759 | inactive: 0.211
81 | CCAACAAUGCCGCCAUCAUTT against Gmfg | inactive: 0.108
82 | GGCUACGAUCCUACAGUGGTT against Rhebl1 | inactive: -0.283
83 | CCAAAUGUGCAGGUUGGAGTT against Exosc3 | inactive: -1.49
84 | GGGAAAAUCAAGACCAAUUTT against Rpp30 | inactive: 1.34
85 | GGUUACAGGAUGUUCUUAUTT against Fmo2 | inactive: -1.48
86 | UUCAUUCAUAUGGACAGUUTT against Psg19 | inactive: 1.73
87 | GGAAGGGUAAAUUUAGAAGTT against Arrdc3 | active: 2.83
88 | CCUGUGAACGCGACAUCAATT against Notch4 | inactive: 1.3

Row | Sequence | z-score
89 | GGAGAUCCAGUUUUUUAACTT against Ndst1 | inactive: 0.566
90 | GGCAGGUUCGAAGAUGUCUTT against Mknk2 | inactive: -0.67
91 | GGAAAAUAUUACUGAAGUGTT against Olfr1010 | inactive: 0.413
92 | GCCUGAUGACGGGAAAAUGTT against Glo1 | inactive: -0.911
93 | GCAGAAAAUAAAUCGAAGGTT against Sgo2a | inactive: 0.833
94 | GGCUUUGGAGGACUCAUUUTT against Uros | inactive: -1.02
95 | GGUCUUCUAAGAAAUUUUGTT against Fmnl2 | inactive: 0.407
96 | GGAGCUGAGCUCUCAGAAGTT against Eif3m | inactive: -0.667
97 | CCAGAAGUGGAUAAACUCUTT against Olfr122 | inactive: 1.11
98 | CCUUUUAACAGACAUGGUUTT against Tlr1 | inactive: -0.0397
99 | GCCUGACGGUUGUAAGAGUTT against Npc2 | inactive: 0.124
100 | GGUUGGCUUCCUGAAGAUCTT against 1700037H04Rik | inactive: -1.23
101 | GCUGUGAUCUCAGUAUUCATT against Strbp | inactive: 0.443
102 | GGGUGUUGAUGUCAUUGUGTT against Dbn1 | inactive: 1.51
103 | CCAAUGAAUACUUGUCAGCTT against Cpne2 | inactive: 0.168
104 | GCAUUUUAAUGCGCCAGUUTT against Atp2c1 | inactive: -0.164
105 | GGCUAUGAAGCAGUACAAGTT against Alyref2 | inactive: 0.135
106 | GCGAGUGGAACAGGAAUAUTT against Tmem63b | inactive: -0.137
107 | AGACCGACGUGAAAGAGGATT against Hand2 | inactive: -0.985
